# Test results: the supplement of paper PMC8728848
# This is one part of the list.
# B1: Ovorubin (Pomacea canaliculata), J7I2T6 (protein)
# chain: MFVATSLLLAIATLVVRASPHNYLIMDIEPPKSVSERDILNLLSPLQVKHSFRVTGSTRLLIVIRLDAQSYEKLDEITVPGKVEVIPAVNMADTMERCGVSWPRVELTDDNVTLFESESTLTDVTKEQLKAMLIGYGEHMSGLLQAHRFEYYQAAGATPHRHFVFVNSVPDEIEVFGREGVDIWGGPGEFVVKPQYVTRI
# Assays:
# Experiment in all cases: glycan array binding signal (z-score within array); higher = stronger binding
# Conditions in all cases: glycan notation: IUPAC condensed, linker removed
# [1] = target: GlcNAc(b1-3)Gal(b1-4)GlcNAc(b1-3)Gal(b1-4)GlcNAc(b1-3)Gal(b1-4)GlcNAc(b1-3)Gal(b1-4)GlcNAc(b1-2)[GlcNAc(b1-3)Gal(b1-4)GlcNAc(b1-3)Gal(b1-4)GlcNAc(b1-3)Gal(b1-4)GlcNAc(b1-3)Gal(b1-4)GlcNAc(b1-6)]Man(a1-6)[GlcNAc(b1-3)Gal(b1-4)GlcNAc(b1-3)Gal(b1-4)GlcNAc(b1-3)Gal(b1-4)GlcNAc(b1-3)Gal(b1-4)GlcNAc(b1-2)Man(a1-3)]Man(b1-4)GlcNAc(b1-4)[Fuc(a1-6)]GlcNAc
# Method in brief: (§1)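 Glycan array binding is given as a within-array Z-score, which can be read as non-binding when negative. The arrays, 3228 of them, came from the Consortium for Functional Glycomics database and were retained only where the protein sequence was available. Z-scores were averaged across arrays of the same protein sequence at different concentrations or buffers and across linkers.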
# [2] = target: GlcNAc(b1-3)Gal(b1-4)GlcNAc(b1-3)Gal(b1-4)GlcNAc(b1-3)GalNAc
# Method in brief: as §1
# [3] = target: GlcNAc(b1-3)Gal(b1-4)GlcNAc(b1-3)GalNAc
# Method in brief: as §1
# [4] = target: GlcNAc(b1-3)Gal(b1-4)GlcNAc(b1-3)[GlcNAc(b1-3)Gal(b1-4)GlcNAc(b1-3)]GalNAc
# Method in brief: as §1
# [5] = target: GlcNAc(b1-3)Gal(b1-4)GlcNAc(b1-6)[Gal(b1-3)]GalNAc
# Method in brief: as §1
# [6] = target: GlcNAc(b1-3)Gal(b1-4)GlcNAc(b1-6)[GlcNAc(b1-3)Gal(b1-3)]GalNAc
# Method in brief: as §1
# [7] = target: GlcNAc(b1-3)Gal(b1-4)GlcNAc(b1-6)[GlcNAc(b1-3)]Gal(b1-4)GlcNAc
# Method in brief: as §1
# [8] = target: GlcNAc(b1-3)GalNAc
# Method in brief: as §1
# [9] = target: GlcNAc(b1-3)Man
# Method in brief: as §1
# [10] = target: GlcNAc(b1-3)[GlcNAc(b1-4)][GlcNAc(b1-6)]GlcNAc
# Method in brief: as §1
# [11] = target: GlcNAc(b1-3)[GlcNAc(b1-6)]Gal(b1-4)GlcNAc
# Method in brief: as §1
# [12] = target: GlcNAc(b1-3)[GlcNAc(b1-6)]GalNAc
# Method in brief: as §1
# [13] = target: GlcNAc(b1-4)Gal(b1-4)GlcNAc
# Method in brief: as §1
# [14] = target: GlcNAc(b1-4)GlcNAc
# Method in brief: as §1
# [15] = target: GlcNAc(b1-4)GlcNAc(b1-4)GlcNAc
# Method in brief: as §1
# [16] = target: GlcNAc(b1-4)GlcNAc(b1-4)GlcNAc(b1-4)GlcNAc(b1-4)GlcNAc
# Method in brief: as §1
# [17] = target: GlcNAc(b1-4)GlcNAc(b1-4)GlcNAc(b1-4)GlcNAc(b1-4)GlcNAc(b1-4)GlcNAc
# Method in brief: as §1
# [18] = target: GlcNAc(b1-4)[GlcNAc(b1-6)]GalNAc
# Method in brief: as §1
# [19] = target: GlcNAc(b1-6)Gal(b1-4)GlcNAc
# Method in brief: as §1
# [20] = target: GlcNAc(b1-6)GalNAc
# Method in brief: as §1
# [21] = target: GlcNAc6S(b1-3)Gal(b1-4)GlcNAc
# Method in brief: as §1
# [22] = target: Kdn(a2-3)Gal(b1-3)GalNAc
# Method in brief: as §1
# [23] = target: Kdn(a2-3)Gal(b1-3)GlcNAc
# Method in brief: as §1
# [24] = target: Kdn(a2-3)Gal(b1-4)Glc
# Method in brief: as §1
# [25] = target: Kdn(a2-3)Gal(b1-4)GlcNAc
# Method in brief: as §1
# [26] = target: Kdn(a2-3)Gal(b1-4)[Fuc(a1-3)]GlcNAc
# Method in brief: as §1
# [27] = target: Kdn(a2-6)Gal(b1-4)GlcNAc
# Method in brief: as §1
# [28] = target: Man(a1-2)Man(a1-2)Man(a1-3)Man
# Method in brief: as §1
# [29] = target: Man(a1-2)Man(a1-2)Man(a1-6)[Man(a1-3)]Man
# Method in brief: as §1
# [30] = target: Man(a1-2)Man(a1-3)Man
# Method in brief: as §1
# [31] = target: Man(a1-2)Man(a1-3)[Man(a1-2)Man(a1-6)]Man
# Method in brief: as §1
# [32] = target: Man(a1-2)Man(a1-3)[Man(a1-2)Man(a1-6)]Man(a1-6)[Man(a1-2)Man(a1-2)Man(a1-3)]Man
# Method in brief: as §1
# [33] = target: Man(a1-2)Man(a1-3)[Man(a1-2)Man(a1-6)]Man(a1-6)[Man(a1-2)Man(a1-2)Man(a1-3)]Man(b1-4)GlcNAc(b1-4)GlcNAc
# Method in brief: as §1
# [34] = target: Man(a1-2)Man(a1-3)[Man(a1-6)]Man(a1-6)[Man(a1-2)Man(a1-3)]Man(b1-4)GlcNAc(b1-4)GlcNAc
# Method in brief: as §1
# [35] = target: Man(a1-2)Man(a1-6)[Man(a1-3)]Man(a1-6)[Man(a1-2)Man(a1-2)Man(a1-3)]Man
# Method in brief: as §1
# [36] = target: Man(a1-2)Man(a1-6)[Man(a1-3)]Man(a1-6)[Man(a1-2)Man(a1-2)Man(a1-3)]Man(b1-4)GlcNAc(b1-4)GlcNAc
# Method in brief: as §1
# [37] = target: Man(a1-3)[Man(a1-6)]Man
# Method in brief: as §1
# [38] = target: Man(a1-3)[Man(a1-6)]Man(a1-6)[Man(a1-2)Man(a1-3)]Man(b1-4)GlcNAc(b1-4)GlcNAc
# Method in brief: as §1
# [39] = target: Man(a1-3)[Man(a1-6)]Man(a1-6)[Man(a1-3)]Man
# Method in brief: as §1
# [40] = target: Man(a1-3)[Man(a1-6)]Man(a1-6)[Man(a1-3)]Man(b1-4)GlcNAc(b1-4)GlcNAc
# Method in brief: as §1
# [41] = target: Man(a1-3)[Man(a1-6)]Man(b1-4)GlcNAc(b1-4)GlcNAc
# Method in brief: as §1
# [42] = target: Man(a1-3)[Man(a1-6)]Man(b1-4)GlcNAc(b1-4)[Fuc(a1-6)]GlcNAc
# Method in brief: as §1
# [43] = target: Man(a1-6)Man
# Method in brief: as §1
# [44] = target: Man(b1-4)GlcNAc
# Method in brief: as §1
# [45] = target: MurNAc(b1-4)GlcNAc
# Method in brief: as §1
binder,measurement,setting,value
B1,glycan array binding signal (z-score),[1],0.519
same,glycan array binding signal (z-score),[2],0.396
same,glycan array binding signal (z-score),[3],-0.113
same,glycan array binding signal (z-score),[4],0.421
same,glycan array binding signal (z-score),[5],-0.746
same,glycan array binding signal (z-score),[6],1.27
same,glycan array binding signal (z-score),[7],-0.444
same,glycan array binding signal (z-score),[8],-0.73
same,glycan array binding signal (z-score),[9],-0.105
same,glycan array binding signal (z-score),[10],7.53
same,glycan array binding signal (z-score),[11],-0.225
same,glycan array binding signal (z-score),[12],-0.458
same,glycan array binding signal (z-score),[13],-0.169
same,glycan array binding signal (z-score),[14],-0.358
same,glycan array binding signal (z-score),[15],-0.641
same,glycan array binding signal (z-score),[16],0.711
same,glycan array binding signal (z-score),[17],-0.236
same,glycan array binding signal (z-score),[18],-1.01
same,glycan array binding signal (z-score),[19],-0.075
same,glycan array binding signal (z-score),[20],-0.372
same,glycan array binding signal (z-score),[21],-0.605
same,glycan array binding signal (z-score),[22],-0.484
same,glycan array binding signal (z-score),[23],-1.13
same,glycan array binding signal (z-score),[24],-0.012
same,glycan array binding signal (z-score),[25],-0.483
same,glycan array binding signal (z-score),[26],-0.422
same,glycan array binding signal (z-score),[27],-0.773
same,glycan array binding signal (z-score),[28],-0.133
same,glycan array binding signal (z-score),[29],-0.491
same,glycan array binding signal (z-score),[30],0.255
same,glycan array binding signal (z-score),[31],-0.202
same,glycan array binding signal (z-score),[32],-0.482
same,glycan array binding signal (z-score),[33],-0.051
same,glycan array binding signal (z-score),[34],-0.828
same,glycan array binding signal (z-score),[35],-0.368
same,glycan array binding signal (z-score),[36],-0.082
same,glycan array binding signal (z-score),[37],-0.092
same,glycan array binding signal (z-score),[38],-0.9
same,glycan array binding signal (z-score),[39],-0.847
same,glycan array binding signal (z-score),[40],0.132
same,glycan array binding signal (z-score),[41],-0.292
same,glycan array binding signal (z-score),[42],-0.155
same,glycan array binding signal (z-score),[43],-0.373
same,glycan array binding signal (z-score),[44],-0.489
same,glycan array binding signal (z-score),[45],-0.33

# Copied from the results shown for reference:
binder,measurement,setting,value
B1,glycan array binding signal (z-score),[20],-0.372
same,glycan array binding signal (z-score),[21],-0.605
same,glycan array binding signal (z-score),[22],-0.484
same,glycan array binding signal (z-score),[23],-1.13
same,glycan array binding signal (z-score),[24],-0.012
same,glycan array binding signal (z-score),[25],-0.483
same,glycan array binding signal (z-score),[26],-0.422
same,glycan array binding signal (z-score),[27],-0.773
same,glycan array binding signal (z-score),[28],-0.133
same,glycan array binding signal (z-score),[29],-0.491
same,glycan array binding signal (z-score),[30],0.255
same,glycan array binding signal (z-score),[31],-0.202
